{"source": "patent US11560400B2", "about": "“Salts of diphosphate phosphoramidate of nucleosides as anticancer compounds” (NuCana plc, priority 2017, dated 2023)", "key": {"HT29": {"tested_on": "HT29", "assay": "CellTiterGlo cell viability assay, HT29", "format": "cell-based", "conditions": "HT29, 72 h, percentage inhibition at the highest concentration tested", "method": "(§1) A subset of compounds of the invention were assayed for their cytotoxic activity in an array of different solid tumours and haematological malignancies using the following assay.\n(§2) In vitro viability assay were performed to assess the effects of compounds on cell viability in selected cell lines over 72 h using the CellTiterGlo (CTG, Promega-G7573) assay. The tests were performed in duplicates with treatment of compounds at 9 points, 3.16 folds titration in 96 well plates over ˜72 h. The compound starting concentrations were 198 μM. Cell viability assay using CellTiterGlo in 96-well plate were performed. Compound treatment 72 h, standard growth conditions, duplicates. Compounds were dissolved to 40 mM with thawed […]. Compounds were serially diluted at 3.16 fold in thawed DMSO, and warmed to 37° C. before being dissolved in media (2 μL+200 μL). After compounds were dissolved in media, media containing compounds were warmed to 37° C. in incubator and then compounds in media were added to cell plates (50 μL+50 μL) in duplicates. The compounds' final concentrations were from 198 μM to 19.8 nM. All compound solubilities were checked and recorded again, then the plates were transferred to CO2 tissue culture incubator immediately and incubated for 3 days. DMSO final concentration is 0.5%. The parent nucleoside in each case was tested as a comparator, as was an exemplary ProTide. […]"}, "HepG2": {"tested_on": "HepG2", "assay": "CellTiterGlo cell viability assay, HepG2", "format": "cell-based", "conditions": "HepG2, 72 h, percentage inhibition at the highest concentration tested", "method": "as §1, §2"}, "OVCAR 3": {"tested_on": "OVCAR 3", "assay": "CellTiterGlo cell viability assay, OVCAR 3", "format": "cell-based", "conditions": "OVCAR 3, 72 h, percentage inhibition at the highest concentration tested", "method": "as §1, §2"}, "MCF-7": {"tested_on": "MCF-7", "assay": "CellTiterGlo cell viability assay, MCF-7", "format": "cell-based", "conditions": "MCF-7, 72 h, percentage inhibition at the highest concentration tested", "method": "as §1, §2"}, "CCRF-CEM": {"tested_on": "CCRF-CEM", "assay": "CellTiterGlo cell viability assay, CCRF-CEM", "format": "cell-based", "conditions": "72 h, percentage inhibition at the highest concentration tested", "method": "as §1, §2"}, "MOLT-4": {"tested_on": "MOLT-4", "assay": "CellTiterGlo cell viability assay, MOLT-4", "format": "cell-based", "conditions": "MOLT-4, 72 h, percentage inhibition at the highest concentration tested", "method": "as §1, §2"}, "K562": {"tested_on": "K562", "assay": "CellTiterGlo cell viability assay, K562", "format": "cell-based", "conditions": "K562, 72 h, percentage inhibition at the highest concentration tested", "method": "as §1, §2"}, "RL": {"tested_on": "RL", "assay": "CellTiterGlo cell viability assay, RL", "format": "cell-based", "conditions": "72 h, percentage inhibition at the highest concentration tested", "method": "as §1, §2"}, "RPMI-8226": {"tested_on": "RPMI-8226", "assay": "CellTiterGlo cell viability assay, RPMI-8226", "format": "cell-based, Human", "conditions": "RPMI-8226, 72 h, percentage inhibition at the highest concentration tested", "method": "as §1, §2"}}, "note": "At least one read-out could not be matched to a standard name with certainty.", "data": [{"smiles": "Nc1nc(Cl)nc2c1ncn2[C@@H]1O[C@H](CO)[C@@H](O)[C@@H]1F", "note": "[Clofarabine, reference compound]", "values": [{"measurement": "Top Inhibit", "setting": "HT29", "result": 68, "unit": "%"}, {"measurement": "Top Inhibit", "setting": "HepG2", "result": 57, "unit": "%"}, {"measurement": "Top Inhibit", "setting": "OVCAR 3", "result": 42, "unit": "%"}, {"measurement": "Top Inhibit", "setting": "MCF-7", "result": 54, "unit": "%"}, {"measurement": "Top Inh", "setting": "CCRF-CEM", "result": 99, "unit": "%"}, {"measurement": "Top Inh", "setting": "MOLT-4", "result": 94, "unit": "%"}, {"measurement": "Top Inh", "setting": "K562", "result": 32, "unit": "%"}, {"measurement": "Top Inh", "setting": "RL", "result": 61, "unit": "%"}, {"measurement": "Top Inh", "setting": "RPMI-8226", "result": 80, "unit": "%"}]}]}
